Experimental data published in PMC11538862.

The chains behind the UniProt entries cited, without tags or fusion partners.
UniProt P60335: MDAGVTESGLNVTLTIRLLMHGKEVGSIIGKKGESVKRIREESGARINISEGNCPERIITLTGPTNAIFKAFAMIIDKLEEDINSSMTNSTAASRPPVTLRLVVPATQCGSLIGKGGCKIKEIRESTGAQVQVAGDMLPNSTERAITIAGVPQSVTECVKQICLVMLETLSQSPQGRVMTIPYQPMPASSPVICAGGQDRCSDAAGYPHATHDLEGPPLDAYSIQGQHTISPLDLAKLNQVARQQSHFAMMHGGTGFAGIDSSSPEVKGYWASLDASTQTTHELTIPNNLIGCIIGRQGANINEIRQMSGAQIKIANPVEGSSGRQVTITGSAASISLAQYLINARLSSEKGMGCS
UniProt O35286: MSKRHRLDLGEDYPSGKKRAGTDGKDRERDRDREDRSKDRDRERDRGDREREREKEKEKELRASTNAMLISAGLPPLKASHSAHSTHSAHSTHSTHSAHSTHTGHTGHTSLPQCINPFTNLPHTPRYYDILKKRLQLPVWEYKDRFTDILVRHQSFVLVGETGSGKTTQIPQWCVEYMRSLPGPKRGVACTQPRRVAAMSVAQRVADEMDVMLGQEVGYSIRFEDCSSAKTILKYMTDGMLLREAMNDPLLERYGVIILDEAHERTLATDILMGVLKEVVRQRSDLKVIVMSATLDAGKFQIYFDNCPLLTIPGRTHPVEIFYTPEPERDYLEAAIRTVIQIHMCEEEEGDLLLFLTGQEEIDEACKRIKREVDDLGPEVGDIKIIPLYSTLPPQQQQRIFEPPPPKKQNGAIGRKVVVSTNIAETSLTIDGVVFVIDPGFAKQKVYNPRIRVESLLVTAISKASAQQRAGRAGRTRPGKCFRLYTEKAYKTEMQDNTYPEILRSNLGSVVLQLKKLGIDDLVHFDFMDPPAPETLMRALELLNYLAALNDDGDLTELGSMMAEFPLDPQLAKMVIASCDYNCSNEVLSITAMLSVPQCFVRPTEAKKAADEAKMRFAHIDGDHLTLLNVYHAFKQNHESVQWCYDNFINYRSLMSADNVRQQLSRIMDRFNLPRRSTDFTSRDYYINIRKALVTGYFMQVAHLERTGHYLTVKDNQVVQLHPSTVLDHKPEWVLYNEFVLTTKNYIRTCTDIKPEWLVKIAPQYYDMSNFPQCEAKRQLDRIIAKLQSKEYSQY
UniProt O70133: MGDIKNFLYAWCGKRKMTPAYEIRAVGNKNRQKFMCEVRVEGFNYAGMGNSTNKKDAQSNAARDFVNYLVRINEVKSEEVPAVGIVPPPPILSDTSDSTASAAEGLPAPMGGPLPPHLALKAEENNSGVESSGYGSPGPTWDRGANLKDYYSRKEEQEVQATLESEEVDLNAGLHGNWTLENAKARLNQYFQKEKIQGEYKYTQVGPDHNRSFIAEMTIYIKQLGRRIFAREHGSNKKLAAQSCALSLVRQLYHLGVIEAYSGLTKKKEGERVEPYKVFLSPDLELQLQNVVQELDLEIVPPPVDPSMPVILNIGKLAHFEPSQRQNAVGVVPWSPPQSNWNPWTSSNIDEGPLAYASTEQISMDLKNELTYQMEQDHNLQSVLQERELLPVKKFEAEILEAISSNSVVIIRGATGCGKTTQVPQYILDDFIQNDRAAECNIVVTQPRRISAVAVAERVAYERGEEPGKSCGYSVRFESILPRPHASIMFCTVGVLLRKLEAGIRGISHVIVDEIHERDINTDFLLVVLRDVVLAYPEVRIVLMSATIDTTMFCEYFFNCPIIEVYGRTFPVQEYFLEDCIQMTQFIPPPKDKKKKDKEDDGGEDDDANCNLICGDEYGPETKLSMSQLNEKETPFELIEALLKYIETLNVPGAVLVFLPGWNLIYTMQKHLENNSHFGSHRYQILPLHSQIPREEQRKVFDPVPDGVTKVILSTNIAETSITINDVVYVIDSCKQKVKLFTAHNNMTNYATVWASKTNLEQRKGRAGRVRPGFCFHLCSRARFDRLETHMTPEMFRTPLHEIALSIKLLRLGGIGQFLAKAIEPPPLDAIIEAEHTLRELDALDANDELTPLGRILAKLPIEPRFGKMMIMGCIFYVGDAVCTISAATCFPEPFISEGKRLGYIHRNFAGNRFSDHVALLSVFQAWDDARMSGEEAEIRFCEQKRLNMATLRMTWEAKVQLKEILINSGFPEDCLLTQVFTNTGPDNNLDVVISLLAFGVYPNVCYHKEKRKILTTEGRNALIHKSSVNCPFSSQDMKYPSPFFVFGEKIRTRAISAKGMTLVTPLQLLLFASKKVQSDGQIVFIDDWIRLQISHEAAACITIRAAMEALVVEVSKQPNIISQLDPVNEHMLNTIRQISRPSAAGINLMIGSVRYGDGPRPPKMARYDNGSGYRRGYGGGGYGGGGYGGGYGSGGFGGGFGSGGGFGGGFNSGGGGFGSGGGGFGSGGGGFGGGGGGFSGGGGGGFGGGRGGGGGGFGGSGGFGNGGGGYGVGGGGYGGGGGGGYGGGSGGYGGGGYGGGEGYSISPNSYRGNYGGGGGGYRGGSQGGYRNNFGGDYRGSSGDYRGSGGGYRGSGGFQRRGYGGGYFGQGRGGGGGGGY

Target: V5-tagged PCBP1 (UniProt P60335)
Assay: affinity purification with mass spectrometry; V5 immunoprecipitation from NMuMG shCTR and shPCBP1 cells transiently expressing V5-PCBP1, against V5-control; gel fragments analysed by mass spectrometry

Row | Molecule | binding
1 | DHX15, mouse (from UniProt O35286 1-795) | binds
2 | DHX36, mouse (protein, UniProt Q8VHK9 1-1001) MSYDYHQSWSRDGGPRGSGQGSSGGGGGGSRGSGGGGGGRGGRGRHPAHLKGREIGLWYAKKQTQKNKEAERQERAVVHMDERREEQIVQLLNSVQAKTDKDSEAQISWFAPEDHGYGTEVSSEKKINSEKKLDNQEKKLLNQEKKTFRITDKSYIDRDSEYLLQENEPNLSLDQHLLEDLQRKKTDPRYIEMQRFRKKLPSYGMQKELVNLINNHQVTVISGETGCGKTTQVTQFILDNYIERGKGSACRIVCTQPRRISAISVAERVATERAESCGNGNSTGYQIRLQSRLPRKQGSILYCTTGIILQWLQSDSRLSSVSHIVLDEIHERNLQSDVLMTVIKDLLHFRSDLKVILMSATLNAEKFSEYFGNCPMIHIPGFTFPVVEYLLEDIIEKIRYVPDQKEHRSQFKRGFMQGHVNRQEKEEKEAIYKERWPAYIKELRTRYSASTVDVLQMMDDDKVDLNLIAALIRYIVLEEEDGAILVFLPGWDNISTLHDLLMSQVMFKSDKFLIIPLHSLMPTVNQTQVFKKTPPGVRKIVIATNIAETSITIDDVVYVIDGGKIKETHFDTQNNISTMSAEWVSKANAKQRKGRAGRVQPGHCYHLYNGLRASLLDDYQLPEILRTPLEELCLQIKILRLGGIAYFLSRLMDPPSNEAVVLSIKHLMELSALDKQEELTPLGVHLARLPVEPHIGKMILFGALFCCLDPVLTIAASLSFKDPFVIPLGKEKIADARRKELAKETRSDHLTVVNAFEGWEEAKRRGFRYEKDYCWEYFLSSNTLQMLHNMKGQFAEHLLGAGFVSSRSPKDPKANINSDNEKIIKAVICAGLYPKVAKIRLNLGKKRKMVKVHTKSDGLVSIHPKSVNVEQTDFHYNWLIYHLKMRTSSIYLYDCTEVSPYCLLFFGGDISIQKDKDQEIIAVDEWIVFQSPERIAHLVKGLRKELDSLLQEKIESPHPVDWDDTKSRDCAVLSAILDLIKTQEKATPRNLPPRSQDGYYS | binds

More lines, now with the values ahead:

Row | binding | Molecule
3 | binds | RNA Helicase A (DHX9), mouse (from UniProt O70133 1-1380)
4 | binds | DDX21, mouse (protein, UniProt Q9JIK5 1-851) MPGKLRSGAKLGSDGAEESMETLPKPSEKKTRKEKTKSKTEEATEGMEEAVSSKAKKTNKKGPSEDDVDPPKSRKAKKQEEEPQDDTASTSKTSKKKKEPLEKQADSETKEIITEEPSEEEADMPKPKKMKKGKEANGDAGEKSPKLKNGLSQPSEEEADIPKPKKMKKGKEANGDAGEKSPKLKNGLSQPSEEEVDIPKPKKMKKGKEASGDAGEKSPRLKDGLSQPSEPKSNSSDAPGEESSSETEKEIPVEQKEGAFSNFPISEETVKLLKARGVNFLFPIQAKTFHHVYSGKDLIAQARTGTGKTFSFAIPLIEKLQGGLQERKRGRAPQVLVLAPTRELANQVSKDFSDITKKLSVACFYGGTPYGGQIERMRSGIDILVGTPGRIKDHLQNGKLDLTKLKHVVLDEVDQMLDMGFADQVEEILCVAYKKDSEDNPQTLLFSATCPHWVFNVAKKYMKSTYEQVDLIGKKTQKAAITVEHLAIKCHWTERAAVIGDVIRVYSGHQGRTIIFCETKKDAQELSQNTCIKQDAQSLHGDIPQKQREITLKGFRNGNFGVLVATNVAARGLDIPEVDLVVQSCPPKDVESYIHRSGRTGRAGRTGVCICFYQNKEEYQLAQVEQKAGIKFKRIGVPSATEIIKASSKDAIRLLDSVPPTAISHFKQSAEKLIEEKGAVEALAAALAHISGATSVDQRSLINSQAGFVTMILRCSIEMPNISYAWKELKEQLGESIDAKVKGMVFLKGKLGVCFDVRTEAVTEIQEKWHDSRRWQLTVATEQPELEGPPDGYRGRMGQRDGSRGAFRGQRGGSRNFRGQGQRGGSRNFRGQRPGGGNRGQKRSFSKAFGQ

These are yes or no findings as the source states them, for the method shown. Binding seen in cells or lysates may run through a third protein. Here binding means that the protein was enriched with, or labelled near, the bait; the list need not be complete.
